Laboratory results taken from doi:10.1101/2024.03.20.585881.

Protein sequences, listed by entry. Tags and fused reporters are not part of them.
UniProt O15169: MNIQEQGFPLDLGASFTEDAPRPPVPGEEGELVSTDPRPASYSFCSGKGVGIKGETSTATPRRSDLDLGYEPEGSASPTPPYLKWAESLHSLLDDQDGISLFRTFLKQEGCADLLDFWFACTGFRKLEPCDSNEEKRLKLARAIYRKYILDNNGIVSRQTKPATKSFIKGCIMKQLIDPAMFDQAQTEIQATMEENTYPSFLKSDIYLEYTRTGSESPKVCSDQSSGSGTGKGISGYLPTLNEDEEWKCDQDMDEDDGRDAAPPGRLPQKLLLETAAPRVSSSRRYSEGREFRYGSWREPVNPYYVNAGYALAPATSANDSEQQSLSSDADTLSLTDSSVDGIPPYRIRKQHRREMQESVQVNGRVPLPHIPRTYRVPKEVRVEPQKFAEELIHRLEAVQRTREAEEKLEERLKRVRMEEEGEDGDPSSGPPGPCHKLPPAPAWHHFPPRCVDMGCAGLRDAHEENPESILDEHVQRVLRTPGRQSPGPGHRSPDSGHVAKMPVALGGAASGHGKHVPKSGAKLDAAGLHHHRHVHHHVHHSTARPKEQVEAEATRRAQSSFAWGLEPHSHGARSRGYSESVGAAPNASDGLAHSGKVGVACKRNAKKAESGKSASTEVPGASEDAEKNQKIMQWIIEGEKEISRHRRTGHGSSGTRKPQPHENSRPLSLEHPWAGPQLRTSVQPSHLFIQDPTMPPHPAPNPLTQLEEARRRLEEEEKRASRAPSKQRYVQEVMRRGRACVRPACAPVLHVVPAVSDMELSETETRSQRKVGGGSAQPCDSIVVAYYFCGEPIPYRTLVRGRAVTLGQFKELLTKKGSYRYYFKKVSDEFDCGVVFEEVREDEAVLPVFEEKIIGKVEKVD
UniProt P25054: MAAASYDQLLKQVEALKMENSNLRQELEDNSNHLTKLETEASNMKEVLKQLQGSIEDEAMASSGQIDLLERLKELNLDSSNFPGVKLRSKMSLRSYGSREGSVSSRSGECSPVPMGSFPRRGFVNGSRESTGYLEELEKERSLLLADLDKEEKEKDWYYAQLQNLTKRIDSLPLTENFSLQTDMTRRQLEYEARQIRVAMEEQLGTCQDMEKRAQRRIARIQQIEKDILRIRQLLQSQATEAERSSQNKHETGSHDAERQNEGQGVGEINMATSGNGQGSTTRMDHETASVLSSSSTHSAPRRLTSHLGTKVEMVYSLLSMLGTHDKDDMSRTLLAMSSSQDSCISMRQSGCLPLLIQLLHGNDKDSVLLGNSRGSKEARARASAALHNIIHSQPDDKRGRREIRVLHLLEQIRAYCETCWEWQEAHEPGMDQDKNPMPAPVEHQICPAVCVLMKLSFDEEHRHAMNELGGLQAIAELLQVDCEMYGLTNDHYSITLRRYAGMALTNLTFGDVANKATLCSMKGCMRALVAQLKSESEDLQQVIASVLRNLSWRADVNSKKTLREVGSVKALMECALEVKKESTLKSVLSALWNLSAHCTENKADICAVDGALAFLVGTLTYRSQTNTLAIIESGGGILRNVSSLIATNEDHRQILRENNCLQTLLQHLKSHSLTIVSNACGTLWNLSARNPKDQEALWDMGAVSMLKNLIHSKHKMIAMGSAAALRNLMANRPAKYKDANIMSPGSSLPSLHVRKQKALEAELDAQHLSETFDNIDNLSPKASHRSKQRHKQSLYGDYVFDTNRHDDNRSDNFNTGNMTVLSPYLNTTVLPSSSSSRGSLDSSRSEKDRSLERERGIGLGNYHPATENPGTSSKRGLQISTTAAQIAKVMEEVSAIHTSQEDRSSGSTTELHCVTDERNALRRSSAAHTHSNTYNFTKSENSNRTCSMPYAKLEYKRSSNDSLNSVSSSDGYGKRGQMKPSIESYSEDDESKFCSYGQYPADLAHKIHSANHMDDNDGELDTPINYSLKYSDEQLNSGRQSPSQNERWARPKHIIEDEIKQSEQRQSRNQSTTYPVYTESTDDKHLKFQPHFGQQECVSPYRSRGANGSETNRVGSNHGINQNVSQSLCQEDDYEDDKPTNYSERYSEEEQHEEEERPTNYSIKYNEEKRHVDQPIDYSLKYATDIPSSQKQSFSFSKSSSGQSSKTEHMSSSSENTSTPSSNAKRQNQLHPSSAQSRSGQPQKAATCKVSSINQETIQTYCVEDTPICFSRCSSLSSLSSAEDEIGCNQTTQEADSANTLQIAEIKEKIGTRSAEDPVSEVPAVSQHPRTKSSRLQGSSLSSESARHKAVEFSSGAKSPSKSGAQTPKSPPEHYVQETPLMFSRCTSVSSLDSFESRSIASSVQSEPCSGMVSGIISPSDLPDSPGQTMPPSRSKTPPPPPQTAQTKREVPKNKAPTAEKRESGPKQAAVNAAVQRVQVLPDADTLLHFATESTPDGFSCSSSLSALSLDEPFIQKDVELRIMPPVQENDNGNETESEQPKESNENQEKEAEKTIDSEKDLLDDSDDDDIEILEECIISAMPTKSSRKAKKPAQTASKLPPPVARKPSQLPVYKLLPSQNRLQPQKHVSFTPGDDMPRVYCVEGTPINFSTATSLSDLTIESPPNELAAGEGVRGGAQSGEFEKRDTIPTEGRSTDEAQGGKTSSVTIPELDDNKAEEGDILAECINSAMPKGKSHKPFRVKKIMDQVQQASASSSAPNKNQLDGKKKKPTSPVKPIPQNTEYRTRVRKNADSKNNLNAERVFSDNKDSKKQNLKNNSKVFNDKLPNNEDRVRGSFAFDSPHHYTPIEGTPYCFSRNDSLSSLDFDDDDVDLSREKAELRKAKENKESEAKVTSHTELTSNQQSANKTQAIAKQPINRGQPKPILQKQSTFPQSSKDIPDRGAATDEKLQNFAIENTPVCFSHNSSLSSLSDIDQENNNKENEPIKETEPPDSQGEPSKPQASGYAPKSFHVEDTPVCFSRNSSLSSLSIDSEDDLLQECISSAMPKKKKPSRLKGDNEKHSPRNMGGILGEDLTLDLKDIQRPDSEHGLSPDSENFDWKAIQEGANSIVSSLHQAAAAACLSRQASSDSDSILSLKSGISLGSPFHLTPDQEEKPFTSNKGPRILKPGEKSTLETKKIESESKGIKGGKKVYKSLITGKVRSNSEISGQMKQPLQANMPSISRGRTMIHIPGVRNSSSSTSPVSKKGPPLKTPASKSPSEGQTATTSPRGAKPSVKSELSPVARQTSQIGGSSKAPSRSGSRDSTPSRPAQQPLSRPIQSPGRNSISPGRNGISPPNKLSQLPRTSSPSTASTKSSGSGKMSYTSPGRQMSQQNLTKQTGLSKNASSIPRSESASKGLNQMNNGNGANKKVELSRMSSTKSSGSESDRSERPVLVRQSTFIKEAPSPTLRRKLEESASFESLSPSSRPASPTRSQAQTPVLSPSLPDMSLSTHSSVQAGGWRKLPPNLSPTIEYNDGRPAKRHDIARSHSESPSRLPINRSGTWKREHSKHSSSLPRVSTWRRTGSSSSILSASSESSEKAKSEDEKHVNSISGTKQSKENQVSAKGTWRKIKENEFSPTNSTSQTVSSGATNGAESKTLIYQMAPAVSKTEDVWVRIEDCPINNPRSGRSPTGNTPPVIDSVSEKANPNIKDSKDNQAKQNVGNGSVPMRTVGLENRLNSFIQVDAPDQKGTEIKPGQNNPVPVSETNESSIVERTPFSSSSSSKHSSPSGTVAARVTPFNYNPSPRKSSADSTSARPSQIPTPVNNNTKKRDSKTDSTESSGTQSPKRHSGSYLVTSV

B1: JUP (ψ-catenin) (protein, UniProt P14923 1-745)
chain: MEVMNLMEQPIKVTEWQQTYTYDSGIHSGANTCVPSVSSKGIMEEDEACGRQYTLKKTTTYTQGVPPSQGDLEYQMSTTARAKRVREAMCPGVSGEDSSLLLATQVEGQATNLQRLAEPSQLLKSAIVHLINYQDDAELATRALPELTKLLNDEDPVVVTKAAMIVNQLSKKEASRRALMGSPQLVAAVVRTMQNTSDLDTARCTTSILHNLSHHREGLLAIFKSGGIPALVRMLSSPVESVLFYAITTLHNLLLYQEGAKMAVRLADGLQKMVPLLNKNNPKFLAITTDCLQLLAYGNQESKLIILANGGPQALVQIMRNYSYEKLLWTTSRVLKVLSVCPSNKPAIVEAGGMQALGKHLTSNSPRLVQNCLWTLRNLSDVATKQEGLESVLKILVNQLSVDDVNVLTCATGTLSNLTCNNSKNKTLVTQNSGVEALIHAILRAGDKDDITEPAVCALRHLTSRHPEAEMAQNSVRLNYGIPAIVKLLNQPNQWPLVKATIGLIRNLALCPANHAPLQEAAVIPRLVQLLVKAHQDAQRHVAAGTQQPYTDGVRMEEIVEGCTGALHILARDPMNRMEIFRLNTIPLFVQLLYSSVENIQRVAAGVLCELAQDKEAADAIDAEGASAPLMELLHSRNEGTATYAAAVLFRISEDKNPDYRKRVSVELTNSLFKHDPAAWEAAQSMIPINEPYGDDMDATYRPMYSSDVPLDPLEMHMDMDGDYPIDTYSDGLRPPYPTADHMLA
B2: α-catenin (CTNNA2) (protein, UniProt P26232 1-953)
chain: MTSATSPIILKWDPKSLEIRTLTVERLLEPLVTQVTTLVNTSNKGPSGKKKGRSKKAHVLAASVEQATQNFLEKGEQIAKESQDLKEELVAAVEDVRKQGETMRIASSEFADDPCSSVKRGTMVRAARALLSAVTRLLILADMADVMRLLSHLKIVEEALEAVKNATNEQDLANRFKEFGKEMVKLNYVAARRQQELKDPHCRDEMAAARGALKKNATMLYTASQAFLRHPDVAATRANRDYVFKQVQEAIAGISNAAQATSPTDEAKGHTGIGELAAALNEFDNKIILDPMTFSEARFRPSLEERLESIISGAALMADSSCTRDDRRERIVAECNAVRQALQDLLSEYMNNTGRKEKGDPLNIAIDKMTKKTRDLRRQLRKAVMDHISDSFLETNVPLLVLIEAAKSGNEKEVKEYAQVFREHANKLVEVANLACSISNNEEGVKLVRMAATQIDSLCPQVINAALTLAARPQSKVAQDNMDVFKDQWEKQVRVLTEAVDDITSVDDFLSVSENHILEDVNKCVIALQEGDVDTLDRTAGAIRGRAARVIHIINAEMENYEAGVYTEKVLEATKLLSETVMPRFAEQVEVAIEALSANVPQPFEENEFIDASRLVYDGVRDIRKAVLMIRTPEELEDDSDFEQEDYDVRSRTSVQTEDDQLIAGQSARAIMAQLPQEEKAKIAEQVEIFHQEKSKLDAEVAKWDDSGNDIIVLAKQMCMIMMEMTDFTRGKGPLKNTSDVINAAKKIAEAGSRMDKLARAVADQCPDSACKQDLLAYLQRIALYCHQLNICSKVKAEVQNLGGELIVSGTGVQSTFTTFYEVDCDVIDGGRASQLSTHLPTCAEGAPIGSGSSDSSMLDSATSLIQAAKNLMNAVVLTVKASYVASTKYQKVYGTAAVNSPVVSWKMKAPEKKPLVKREKPEEFQTRVRRGSQKKHISPVQALSEFKAMDSF
B3: 8-catenin (CTNND1) (protein, UniProt O60716 1-968)
chain: MDDSEVESTASILASVKEQEAQFEKLTRALEEERRHVSAQLERVRVSPQDANPLMANGTLTRRHQNGRFVGDADLERQKFSDLKLNGPQDHSHLLYSTIPRMQEPGQIVETYTEEDPEGAMSVVSVETSDDGTTRRTETTVKKVVKTVTTRTVQPVAMGPDGLPVDASSVSNNYIQTLGRDFRKNGNGGPGPYVGQAGTATLPRNFHYPPDGYSRHYEDGYPGGSDNYGSLSRVTRIEERYRPSMEGYRAPSRQDVYGPQPQVRVGGSSVDLHRFHPEPYGLEDDQRSMGYDDLDYGMMSDYGTARRTGTPSDPRRRLRSYEDMIGEEVPSDQYYWAPLAQHERGSLASLDSLRKGGPPPPNWRQPELPEVIAMLGFRLDAVKSNAAAYLQHLCYRNDKVKTDVRKLKGIPVLVGLLDHPKKEVHLGACGALKNISFGRDQDNKIAIKNCDGVPALVRLLRKARDMDLTEVITGTLWNLSSHDSIKMEIVDHALHALTDEVIIPHSGWEREPNEDCKPRHIEWESVLTNTAGCLRNVSSERSEARRKLRECDGLVDALIFIVQAEIGQKDSDSKLVENCVCLLRNLSYQVHREIPQAERYQEAAPNVANNTGPHAASCFGAKKGKDEWFSRGKKPIEDPANDTVDFPKRTSPARGYELLFQPEVVRIYISLLKESKTPAILEASAGAIQNLCAGRWTYGRYIRSALRQEKALSAIADLLTNEHERVVKAASGALRNLAVDARNKELIGKHAIPNLVKNLPGGQQNSSWNFSEDTVISILNTINEVIAENLEAAKKLRETQGIEKLVLINKSGNRSEKEVRAAALVLQTIWGYKELRKPLEKEGWKKSDFQVNLNNASRSQSSHSYDDSTLPLIDRNQKSDKKPDREEIQMSNMGSNTKSLDNNYSTPNERGDHNRTLDRSGDLGDMEPLKGTTPLMQDEGQESLEEELDVLVLDDEGGQVSYPSMQKI
B4: AMER1 (protein, UniProt Q5JTC6 1-1135)
chain: METQKDEAAQAKGAAASGSTREQTAEKGAKNKAAEATEGPTSEPSSSGPGRLKKTAMKLFGGKKGICTLPSFFGGGRSKGSGKGSSKKGLSKSKTHDGLSEAAHGPEDVVSEGTGFSLPLPELPCQFPSSQSAHGALETGSRCKTSVAGATEKAVAEKFPSMPKPKKGLKGFFSSIRRHRKSKVTGAEQSEPGAKGPERVRARPHEHVSSAPQVPCFEETFQAPRKENANPQDAPGPKVSPTPEPSPPATEKMACKDPEKPMEACASAHVQPKPAPEASSLEEPHSPETGEKVVAGEVNPPNGPVGDPLSLLFGDVTSLKSFDSLTGCGDIIAEQDMDSMTDSMASGGQRANRDGTKRSSCLVTYQGGGEEMALPDDDDEEEEEEEEVELEEEEEEVKEEEEDDDLEYLWETAQMYPRPNMNLGYHPTTSPGHHGYMLLDPVRSYPGLAPGELLTPQSDQQESAPNSDEGYYDSTTPGFEDDSGEALGLVRRDCLPRDSYSGDALYEFYEPDDSLENSPPGDDCLYDLHGRSSEMFDPFLNFEPFLSSRPPGAMETEEERLVTIQKQLLYWELRREQLEAQEARAREAHAREAHAREAYTREAYGREAYAREAHTWEAHGREARTREAQAREVRCRETQVRETQARQEKPVLEYQMRPLGPSVMGLAAGVSGTSQISHRGITSAFPTTASSEPDWRDFRPLEKRYEGTCSKKDQSTCLMQLFQSDAMFEPDMQEANFGGSPRRAYPTYSPPEDPEEEEVEKEGNATVSFSQALVEFTSNGNLFSSMSCSSDSDSSFTQNLPELPPMVTFDIADVERDGEGKCEENPEFHNDEDLAASLEAFELGYYHKHAFNNYHSRFYQGLPWGVSSLPRYLGLPGLHPRPPPAAMALNRRSRSLDTAETLEMELSNSHLVQGYLESDELQAQQEDSDEEDEEEEEGEWSRDSPLSLYTEPPGAYDWPAWAPCPLPVGPGPAWISPNQLDRPSSQSPYRQATCCIPPMTMSISLSVPESRAPGESGPQLARPSHLHLPMGPCYNLQPQASQSMRARPRDVLLPVDEPSCSSSSGGFSPSPLPQAKPVGITHGIPQLPRVRPEHPQPQPTHYGPSSLDLSKERAEQGASLATSYSSTAMNGNLAK

Experiments:
Assay in all cases: affinity purification with mass spectrometry
3xFLAG-eGFP-Axin1 = 3xFLAG-eGFP-Axin1 (UniProt O15169)
[1] = biological target: 3xFLAG-mScarlet-APC (human (endogenous in HEK293)) (UniProt P25054)
eGFP-Axin1 = eGFP-Axin1 (UniProt O15169)

Binder	binding (3xFLAG-eGFP-Axin1)	binding [1]	binding (eGFP-Axin1)
B1	binds	binds	binds
B2	binds	–	binds
B3	binds	–	–
B4	binds	–	–

Results are given in words; binding and its absence hold for the method and conditions named. In cells and extracts the contact can be indirect. These calls come from enrichment with a bait or labelling near it, and not all partners need be listed.
